Results taken from PubChem BioAssay AID588497 (NMMLSC, 2011).
Out of some 360,000 compounds screened, about 780 (0.22%) were called active. The inconclusive results got no clear call from the source; some entries with a clear call stand among them for comparison. No stated cut-off is given here; in the data, active means inhibition above about 35% (passing the limit was not always enough); inconclusive means no clear call, values can overlap the other calls.

Test system: Botulinum neurotoxin type F light chain protease (Clostridium botulinum)
Test: BoNT/F light chain protease inhibitors, primary screen, biochemical, flow cytometry, MLPCN library (AID 588497); further: plate controls were buffer without enzyme for full effect and enzyme alone for no effect
Conditions: Multiplex microsphere protease cleavage assay, at 10 µM, hits give high values

Structure (SMILES) | inhibition
CN(C)CCNC(=O)C(c1ccccc1)c1ccccc1 | inconclusive: -32.5%
C=CCNC(=O)c1ccc(N(Cc2ccccc2)S(C)(=O)=O)cc1 | inconclusive: -14.9%
NC(=NC(=O)c1cccc(C(F)(F)F)c1)c1ccc(C(F)(F)F)cn1 | inconclusive: -385%
O=C(CC1SC(N2CCCCC2)=NC1=O)Nc1cccc(C(=O)Nc2ncccc2O)c1 (configuration not stated) | inconclusive: -9%
O=C(NCc1csc(-c2cccs2)n1)c1ccccc1 | inconclusive: -51.5%
CCOc1cccc(N2C(=O)/C(=C/c3ccco3)C(=O)NC2=S)c1 | inconclusive: -20%
CCCc1cc(C(=O)NNC(=S)NC2CCCCC2)cs1 | inactive: -8.9%
CCCCC12CN3CC(C)(CN(C1)C3c1ccc([N+](=O)[O-])o1)C2=O (configuration not stated) | inconclusive: 16.1%
CCN(CC)Cc1c(C(=O)N/N=C/c2ccccn2)nnn1-c1nonc1N | inactive: 1.5%
O=C(CN1C(=O)NC2(CCOc3ccccc32)C1=O)c1ccc[nH]1 (configuration not stated) | inconclusive: 2.3%
O=C(CSc1nnc(-c2ccncc2)n1Cc1ccco1)Nc1nc(-c2ccccc2)cs1 | inconclusive: 35%
CC(C)C[C@H]1CN(CCCC[C@H]2CNC(=O)C(=O)N2CC2CCCCC2)C(=O)C(=O)N1CC1CCCCC1 | inactive: 13.7%
CN(C(=O)COC(=O)C12CC3CC(CC(Cl)(C3)C1)C2)C1(C#N)CCCCC1 | inactive: -3.5%
NNC(=O)c1oc2nc(-c3ccccc3)cc(-c3ccco3)c2c1N | inconclusive: -103%
CCN1CCCC1CNC(=O)CCc1nc(-c2ccc(C)cc2)no1 (configuration not stated) | inconclusive: -111%
S=c1[nH]nc(C2CCCCC2)n1/N=C/c1ccccc1 | inconclusive: -1.9%
Cc1nc2c(C)cccc2c2c1COC2 | inconclusive: -136%
O=c1c(Cc2ccc(Cl)cc2Cl)c(O)ccn1CCCN1CCOCC1 | inactive: 5%
COc1ccc2nc(C(C)O)[nH]c2c1 (configuration not stated) | inconclusive: -14.4%
COc1ccc(CNC(=O)Cn2nc([N+](=O)[O-])cc2C)cc1 | inconclusive: -23.9%
O=C(NN1C(=O)C2C(C1=O)C1C=CC2C12CC2)c1ccccc1Cl (configuration not stated) | inconclusive: -0.4%
C=C1SC(=Nc2ccccc2Cl)N(C(=O)c2sc3ccccc3c2Cl)C1(C)C | inconclusive: 1.6%
CC(C)NC(=O)CSCc1c(Cl)cccc1Cl | inconclusive: 62.3%

Structure (SMILES) | inhibition
Cc1[nH]n(-c2ccccc2)c(=O)c1-c1ccc(Cl)cc1 | inactive: -7.6%
CSc1nnc2n(-c3ccccc3)c(=O)c3c4c(sc3n12)CCC4 | inconclusive: 6.5%
O=C(O)CCN1C(=O)c2ccc(NC(=O)CSc3ccc(Cl)cc3)cc2C1=O | inconclusive: -14.1%
Cc1cc(S(N)(=O)=O)c(N)c(S(N)(=O)=O)c1 | inconclusive: -5.9%
Cc1cc2cc(CNC(=O)c3ccc(S(=O)(=O)N(C)C)cc3)ccc2n1C | inactive: -66.1%
Cc1cc(C)c(C#N)c(N2CCN(Cc3ccc4c(c3)OCO4)CC2)n1 | inconclusive: -7.4%
Cc1cc2oc(=O)c(CC(=O)O)c(C)c2c2occ(C(C)(C)C)c12 | inactive: 15.1%
CCOC(=O)c1cn2nc(Oc3ccc(C(=O)OC)cc3)ccc2n1 | inconclusive: 103%
COc1ccc(NC(=O)N[C@@H](Cc2ccccc2)C(=O)NN)cc1 | inconclusive: 37.2%
O=C(CN1C(=O)NC2(CCc3ccccc32)C1=O)c1cccs1 (configuration not stated) | inconclusive: -8%
O=C(NNC(=O)c1cccc2ccccc12)c1ccc2c(c1)OCO2 | inactive: -3.4%
CNc1ncnc2c1ncn2[C@H]1CN(Cc2ccncc2)C[C@@H](CO)O1 | inactive: -2.7%
COC(=O)c1cccc(NC(=S)Nc2ccc(Cl)c(Cl)c2)c1 | inconclusive: 9.3%
CC(=O)Nc1ccc(NCc2ccc(C)s2)cc1 | inconclusive: -46.3%
COc1ccc(-c2nc(CS(=O)CC(=O)NCc3ccc(Cl)cc3)c(C)o2)cc1OC (configuration not stated) | inactive: 2.3%
Cc1cc2ncn(/N=C/c3ccc([N+](=O)[O-])s3)c2cc1C | inactive: 20.6%
O=C1c2ccccc2NC(c2ccccc2)N1Cc1ccccc1 (configuration not stated) | inconclusive: 16.1%
C=CCN=C1S/C(=C\c2ccc(N(C)C)cc2)C(=O)N1CC=C | inconclusive: -56.4%
Cn1c(-c2ccc(F)cc2)cnc1NCc1ccccc1F | inconclusive: 16.1%
CCN(CC(=O)N1CCCC1)S(=O)(=O)c1cc(C)ccc1OC | inconclusive: -27.9%
CC(C)C(C)NC(=O)CSc1nnc(-c2c[nH]c3ccccc23)o1 (configuration not stated) | inactive: 2.5%
O=C(CC1SCCNC1=O)Nc1cccc([N+](=O)[O-])c1 (configuration not stated) | inconclusive: -52.1%
COc1cc(C(=O)NCC(=O)NCCN2C(=O)S/C(=C\c3ccccc3Cl)C2=O)cc(OC)c1OC | inconclusive: 6.2%

Laid out differently: 2 of the compounds above.

| Structure (SMILES) | inhibition |
| --- | --- |
| CCOc1cccc(N2C(=O)/C(=C/c3ccco3)C(=O)NC2=S)c1 | inconclusive: -20% |
| CCN1CCCC1CNC(=O)CCc1nc(-c2ccc(C)cc2)no1 (configuration not stated) | inconclusive: -111% |

Additional entries follow:

Structure (SMILES) | inhibition
O=S(=O)(NCCSc1nc2ccccc2o1)c1ccccc1 | inconclusive: -29.7%
O=C1N=C(N2CCCCC2)S/C1=C\c1ccc(Br)cc1 | inconclusive: -9.2%
Cc1cc(C(=O)OCC(=O)N2CCN(C(=O)c3ccco3)CC2)c(C)n1-c1ccc(F)cc1 | inconclusive: -9.2%
N#Cc1ncc(Cl)c2ccccc12 | inconclusive: 160%
CCOC(=O)c1nnn2c1nc(Nc1cccc(C(F)(F)F)c1)c1ccccc12 | inconclusive: -110%
Cc1cccc(-n2ccnc2SCC(=O)Nc2nccs2)c1C | inconclusive: -27.3%
COc1ccc(Nc2ncnc3sc(C)cc23)c(OC)c1 | inconclusive: 1.4%
O=C(Nc1cccc(Cl)c1)c1cc(F)cc2c1OCOC2 | inconclusive: -158%
COC(=O)c1ccc(/C=N\N2CCN(c3ccccc3)CC2)cc1 | inconclusive: -5.8%
COc1cccc(CNC(=O)c2ccc(C)c(S(=O)(=O)N3CCOCC3)c2)c1 | inconclusive: 11.7%
COc1ccc(S(=O)(=O)N2CCN(C(=O)CCSc3ccccc3)CC2)cc1 | inactive: -1.5%
CCN(CC)C(=O)CSc1nc(O)c(Cc2ccccc2)c(=O)n1-c1ccccc1C | inconclusive: 32.3%
CCNC(=S)Nc1ccc(Cc2nc3ccccc3[nH]2)cc1 | inconclusive: -32.1%
COCc1cc(Sc2ccc(Cl)cc2)nc(-c2ccccc2)n1 | inconclusive: -18.3%
CN(C)c1ccc(N=Nc2ccccc2Br)cc1 | inconclusive: -18.6%
CCC(=NCc1cccnc1)c1c(O)n(-c2ccccc2C)c(=O)[nH]c1=O | inconclusive: 32.9%
CC1(c2ccc3c(c2)OCCO3)NC(=O)N(CC(=O)Nc2ccccc2F)C1=O (configuration not stated) | inconclusive: 11.7%
CC(C)(C)C1CCC(=NNS(=O)(=O)c2ccc(Br)cc2)CC1 (configuration not stated) | inconclusive: 18.6%
Cc1cccc2c(C(=O)O)c3cccc(C)c3nc12 | inconclusive: 4.5%
COc1cc(NC(=O)c2ccc3c(c2)OCO3)c2ncccc2c1 | inactive: 2.6%
Cc1ccc(NC(=S)N2CCCCCC2)cc1 | inconclusive: -188%
COc1cc(/C=N/Nc2ccc(C(=O)O)cc2)ccc1O | inactive: 1%
O=C1C(=Cc2ccc(Br)o2)C(=O)c2ccccc21 | active: 34.5%

20 entries from above, reformatted:
Structure (SMILES),inhibition
O=S(=O)(NCCSc1nc2ccccc2o1)c1ccccc1,inconclusive: -29.7%
O=C1N=C(N2CCCCC2)S/C1=C\c1ccc(Br)cc1,inconclusive: -9.2%
Cc1cc(C(=O)OCC(=O)N2CCN(C(=O)c3ccco3)CC2)c(C)n1-c1ccc(F)cc1,inconclusive: -9.2%
N#Cc1ncc(Cl)c2ccccc12,inconclusive: 160%
CCOC(=O)c1nnn2c1nc(Nc1cccc(C(F)(F)F)c1)c1ccccc12,inconclusive: -110%
Cc1cccc(-n2ccnc2SCC(=O)Nc2nccs2)c1C,inconclusive: -27.3%
COc1ccc(Nc2ncnc3sc(C)cc23)c(OC)c1,inconclusive: 1.4%
O=C(Nc1cccc(Cl)c1)c1cc(F)cc2c1OCOC2,inconclusive: -158%
COC(=O)c1ccc(/C=N\N2CCN(c3ccccc3)CC2)cc1,inconclusive: -5.8%
COc1cccc(CNC(=O)c2ccc(C)c(S(=O)(=O)N3CCOCC3)c2)c1,inconclusive: 11.7%
COc1ccc(S(=O)(=O)N2CCN(C(=O)CCSc3ccccc3)CC2)cc1,inactive: -1.5%
CCN(CC)C(=O)CSc1nc(O)c(Cc2ccccc2)c(=O)n1-c1ccccc1C,inconclusive: 32.3%
CCNC(=S)Nc1ccc(Cc2nc3ccccc3[nH]2)cc1,inconclusive: -32.1%
COCc1cc(Sc2ccc(Cl)cc2)nc(-c2ccccc2)n1,inconclusive: -18.3%
CN(C)c1ccc(N=Nc2ccccc2Br)cc1,inconclusive: -18.6%
CC1(c2ccc3c(c2)OCCO3)NC(=O)N(CC(=O)Nc2ccccc2F)C1=O (configuration not stated),inconclusive: 11.7%
Cc1cccc2c(C(=O)O)c3cccc(C)c3nc12,inconclusive: 4.5%
COc1cc(NC(=O)c2ccc3c(c2)OCO3)c2ncccc2c1,inactive: 2.6%
COc1cc(/C=N/Nc2ccc(C(=O)O)cc2)ccc1O,inactive: 1%
O=C1C(=Cc2ccc(Br)o2)C(=O)c2ccccc21,active: 34.5%

Additional compounds.

Structure (SMILES) | inhibition
Cc1cc(C)c(C#N)c(N2CCN(c3ccc(F)cc3)CC2)n1 | inconclusive: 9%
c1cn(CCCNC2CCCCCCC2)cn1 | inconclusive: 9.8%
CCCN1C(=O)S/C(=C/c2ccc(N3CCOCC3)o2)C1=O | inconclusive: -1.3%
CC(=O)Nc1ccc(N2CCN(c3ccc(C(F)(F)F)cn3)CC2)nc1 | inconclusive: 26.3%
Cc1ccc(NC(=O)C2(S(=O)(=O)c3ccc(Cl)cc3)CC2)c(Br)c1 | inactive: 1.6%
CCN(CC)CCNC(=O)c1ccc2c(=O)n(C3CCCC3)c(=S)[nH]c2c1 | inactive: 1.4%
CC(NC(=O)c1ccco1)C(=O)OCc1cccc(Cl)c1 (configuration not stated) | inactive: -10%
COCC(=O)N1CCCC(C(=O)c2ccc(-c3ccccc3)cc2)C1 (configuration not stated) | inconclusive: -19.3%
CCN(CC)C(=O)Cn1cc(S(=O)(=O)CC(=O)Nc2ccc(F)cc2)c2ccccc21 | inconclusive: -4.3%
CC1(C)CC(=NNC(=O)c2n[nH]c3c2CCC3)CC(C)(C)N1 | active: 37.1%
CCN(CCO)C(=O)c1ccc2oc(Cc3ccc(Cl)cc3)nc2c1 | inconclusive: 0.4%
CCCOC(=O)c1ccc(NC(=O)C2CCCO2)cc1 (configuration not stated) | inactive: 2.3%
COc1cc(OC)c([C@H]2C=C(C)[C@H]3C[C@@H]2C3(C)C)c(OC)c1 | inconclusive: -1%
O=S(=O)(c1cccc(S(=O)(=O)N2CCC(Cc3ccccc3)CC2)c1)N1CCOCC1 | inactive: 6.5%
CCn1c(SCC(=O)Nc2ccc(OC)c(OC)c2)nnc1-c1ccco1 | inconclusive: 6.5%
COc1ccc(N=Cc2nc(-c3ccccc3)oc2OC(C)=O)cc1 | inconclusive: 0.5%
Cc1ccnc(NC(=O)CNC(=O)Cc2cccc3ccccc23)c1 | inconclusive: 1.4%
COc1ccccc1NC(=O)c1cc(N)cc(C(=O)Nc2ccccc2OC)c1 | inactive: 6.8%
COc1cc(C(C2C(=O)CC(C)(C)CC2=O)C2C(=O)CC(C)(C)CC2=O)ccc1OC(C)=O | inconclusive: -54.3%
O=C(CSc1nnnn1-c1ccc(O)cc1)c1cc2ccccc2o1 | inconclusive: -36.3%
CC1(c2ccc3ccccc3c2)NC(=O)N(CC(=O)N2CCN(Cc3ccccc3)CC2)C1=O (configuration not stated) | inconclusive: 9.3%
COc1ccccc1C1CCN(C(=S)Nc2ccc(Br)cc2)CC1 | inconclusive: 3.4%
O=C(CN1C(=O)NC2(CCCCCC2)C1=O)NCc1ccccc1 | inactive: -5.2%
